Measurements: article PMC10993510
Numbering of substitutions follows the chain as printed. No constants are given. Whether binding was seen depends on the method and setting. Sequences can lack the tags named with a protein. Values belong to the binder of their own block, whether it stands above or below them.

Columns and labels:
Test in all cases: SEC; Superose 6 Increase 10/300 column, last step of the purification; elution in 150 mM NaCl, 25 mM Hepes pH 7.5, 1 mM DTT; both purified
[1] = biological target: Faa1-WT-EGFP (S. cerevisiae) (UniProt P30624)
[2] = biological target: Faa1-4D-EGFP (S. cerevisiae) (UniProt P30624)
[3] = biological target: Faa1-6D-EGFP (S. cerevisiae) (UniProt P30624)

binding [1]: no binding
B1: Faa1-WT-EGFP (enzyme, UniProt P30624 1-700)
chain: MVAQYTVPVGKAANEHETAPRRNYQCREKPLVRPPNTKCSTVYEFVLECFQKNKNSNAMGWRDVKEIHEESKSVMKKVDGKETSVEKKWMYYELSHYHYNSFDQLTDIMHEIGRGLVKIGLKPNDDDKLHLYAATSHKWMKMFLGAQSQGIPVVTAYDTLGEKGLIHSLVQTGSKAIFTDNSLLPSLIKPVQAAQDVKYIIHFDSISSEDRRQSGKIYQSAHDAINRIKEVRPDIKTFSFDDILKLGKESCNEIDVHPPGKDDLCCIMYTSGSTGEPKGVVLKHSNVVAGVGGASLNVLKFVGNTDRVICFLPLAHIFELVFELLSFYWGACIGYATVKTLTSSSVRNCQGDLQEFKPTIMVGVAAVWETVRKGILNQIDNLPFLTKKIFWTAYNTKLNMQRLHIPGGGALGNLVFKKIRTATGGQLRYLLNGGSPISRDAQEFITNLICPMLIGYGLTETCASTTILDPANFELGVAGDLTGCVTVKLVDVEELGYFAKNNQGEVWITGANVTPEYYKNEEETSQALTSDGWFKTGDIGEWEANGHLKIIDRKKNLVKTMNGEYIALEKLESVYRSNEYVANICVYADQSKTKPVGIIVPNHAPLTKLAKKLGIMEQKDSSINIENYLEDAKLIKAVYSDLLKTGKDQGLVGIELLAGIVFFDGEWTPQNGFVTSAQKLKRKDILNAVKDKVDAVYSSS

binding [2]: no binding
B2: Faa1-4D-EGFP (enzyme, UniProt P30624 1-700)
chain: B1 chain with K387D, K388D, K636D, K647D

binding [3]: no binding
B3: Faa1-6D-EGFP (enzyme, UniProt P30624 1-700)
chain: B1 chain with K387D, K388D, K612D, K619D, K636D, K647D
